According to publication PMC5347014:
These are yes or no findings as the source states them, for the method shown. For part of these data: In cells and extracts the contact can be indirect.

How the values were obtained:
[1] = target: T1, AtClpC1 NTD (N-terminal domain of Arabidopsis thaliana ClpC1, residues 94-238) (Arabidopsis thaliana) (UniProt Q9FI56); assay: pull-down; pull down assays to obtain a complex of AtClpS1 with AtClpC1 NTD; details in Supplemental data
T1 sequence: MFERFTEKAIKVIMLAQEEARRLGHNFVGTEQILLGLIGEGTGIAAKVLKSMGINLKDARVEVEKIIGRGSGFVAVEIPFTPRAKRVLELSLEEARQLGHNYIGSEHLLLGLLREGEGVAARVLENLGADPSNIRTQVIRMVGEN

[2] = target: full-length AtClpC1 (Arabidopsis thaliana) (UniProt Q9FI56); assay: co-purification; co-purification of AtClpS1 with the hexameric form of full-length AtClpC1; details in Supplemental data
[3] = target: full-length AtClpC1 (Arabidopsis thaliana) (UniProt Q9FI56); assay: co-purification; co-purification of AtClpS1 with the monomeric form of full-length AtClpC1; details in Supplemental data

Measured: binding

B1: AtClpS1 (protein, UniProt Q9SX29 45-159)
chain: AALGKGGGVLDKPIIEKTTPGRESEFDLRKSKKIAPPYRVILHNDNFNKREYVVQVLMKVIPGMTVDNAVNIMQEAHINGLAVVIVCAQADAEQHCMQLRGNGLLSSVEPDGGGC
no binding: [1] | [2] | [3]
